The target in the experiment is T1, Syndecan-1 (SDC-1), endogenous on normal murine mammary gland (NMuMG) cells (mouse (endogenous in NMuMG)) (UniProt P18828).
T1 sequence (chain, heparan sulfate (HS) chains attached to the extracellular domain): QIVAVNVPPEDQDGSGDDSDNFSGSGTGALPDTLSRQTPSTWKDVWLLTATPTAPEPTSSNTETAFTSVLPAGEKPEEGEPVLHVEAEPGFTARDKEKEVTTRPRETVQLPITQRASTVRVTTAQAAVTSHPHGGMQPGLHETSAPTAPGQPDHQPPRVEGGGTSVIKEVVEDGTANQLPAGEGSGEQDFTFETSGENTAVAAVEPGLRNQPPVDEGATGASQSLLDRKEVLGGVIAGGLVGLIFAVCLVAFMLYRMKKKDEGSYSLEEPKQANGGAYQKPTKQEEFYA
Put plainly: co-IP; NMuMG cells starved 4 h, incubated with 0, 50, 100 and 150 nM recombinant mouse CXCL13 for 18 h; cell lysate (500 ug) precipitated with anti-SDC-1 antibody (5 ug) overnight at 4 C and protein A/G magnetic beads (Pierce Classic Magnetic IP/Co-IP Kit); Western blot with anti-CXCL13 or rat IgG as control; only the binder purified. A general note: In western blotting, separated proteins are transferred to a membrane and probed.

These are yes or no findings as the source states them, for the method shown. Binding seen in cells or lysates may run through a third protein. Some binding calls cover weakened binding; strength is not graded here.

B1: recombinant mouse CXCL13 (C-X-C motif chemokine ligand 13) (ligand, UniProt O55038 22-109)
chain: ILEAHYTNLKCRCSGVISTVVGLNIIDRIQVTPPGNGCPKTEVVIWTKMKKVICVNPRAKWLQRLLRHVQSKSLSSTPQAPVSKRRAA
For the molecule B1, the binding result was “binds”.

Values taken from article PMC11394922.
